{"source": "PubChem BioAssay AID1259308 – NCATS – 2017", "screen": "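Knock-downs that increase output of a recombinant reporter protein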 (primary screen)", "system": "human HEK293 embryonic kidney cells stably expressing firefly luciferase (HEK-CMV-Luc2-Hygro)", "knock-down reagent": "single siRNA against human genes, 0.8 pmol siRNA per well", "duration": "72 h", "measured": "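Luciferase light (ONE-Glo) measured on one replicate plate set and viability (CellTiter-Glo) on the other, scaled to a negative control siRNA, with robust z-scores and luciferase per cell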", "reading the numbers": "total luciferase, z-score: higher = more reporter protein produced", "active means": "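Active when the median/MAD z-score for overall luciferase is greater than 3; a gene was taken forward for validation with new siRNAs if at least two of its three siRNAs passed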", "meaning of the calls": "active = raised luciferase; inactive = no rise", "note": "This is one part, drawn at random, of about 59,000 deposited reagents. Over the whole deposit, about 1,510 (2.6%) were called active. 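Calls use total luciferase alone and ignore viability, so some active siRNAs may act by altering cell number.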 Entries without a mark were called inactive. Further read-outs or replicates are left out here."}
{"gene knocked down": "SPOCK2", "PubChem SID": "SID160723133", "total luciferase, z-score": 2.48}
{"gene knocked down": "SPOCK2", "PubChem SID": "SID160723134", "total luciferase, z-score": -0.768}
{"gene knocked down": "SPOCK2", "PubChem SID": "SID160723135", "total luciferase, z-score": 1}
{"gene knocked down": "FANCB", "PubChem SID": "SID160732680", "total luciferase, z-score": 0.358}
{"gene knocked down": "FANCB", "PubChem SID": "SID160763808", "total luciferase, z-score": -0.00172}
{"gene knocked down": "FANCB", "PubChem SID": "SID160763818", "total luciferase, z-score": 0.468}
{"gene knocked down": "BLMH", "PubChem SID": "SID160727561", "total luciferase, z-score": 0.0866}
{"gene knocked down": "BLMH", "PubChem SID": "SID160727627", "total luciferase, z-score": -0.892}
{"gene knocked down": "BLMH", "PubChem SID": "SID160727685", "total luciferase, z-score": 1.43}
{"gene knocked down": "PDE2A", "PubChem SID": "SID160776223", "total luciferase, z-score": -1.2}
{"gene knocked down": "PDE2A", "PubChem SID": "SID160776234", "total luciferase, z-score": -1.73}
{"gene knocked down": "PDE2A", "PubChem SID": "SID160776245", "total luciferase, z-score": 0.749}
{"gene knocked down": "HIGD2A", "PubChem SID": "SID160724905", "total luciferase, z-score": -0.262}
{"gene knocked down": "HIGD2A", "PubChem SID": "SID160732637", "total luciferase, z-score": 0.662}
{"gene knocked down": "HIGD2A", "PubChem SID": "SID160760546", "total luciferase, z-score": 0.399}
{"gene knocked down": "TNIP2", "PubChem SID": "SID160748711", "total luciferase, z-score": 0.141}
{"gene knocked down": "TNIP2", "PubChem SID": "SID160748712", "total luciferase, z-score": 2.15}
{"gene knocked down": "TNIP2", "PubChem SID": "SID160748713", "total luciferase, z-score": 1.48}
{"gene knocked down": "LOC643855", "PubChem SID": "SID160725669", "total luciferase, z-score": -0.0466}
{"gene knocked down": "LOC643855", "PubChem SID": "SID160769023", "total luciferase, z-score": 0.863}
{"gene knocked down": "LOC643855", "PubChem SID": "SID160769024", "total luciferase, z-score": 2.7}

Part of the list above, reformatted:
| gene knocked down | PubChem SID | total luciferase, z-score |
| --- | --- | --- |
| FANCB | SID160763808 | -0.00172 |
| FANCB | SID160763818 | 0.468 |
| BLMH | SID160727561 | 0.0866 |
